Experiment [1] deals with T1, human ROR2 ECD-Fc fusion protein (human, UniProt Q01974 34-403).
T1 construct: Panning and phage ELISA antigen; also called human ROR2-ECD (phage ELISA); not shown: Fc part and any linker are not described
As to the kind of experiment: phage ELISA on coated ROR2 ECD-Fc.

Protein sequences, listed by entry. Tags and fused reporters are not part of them. Lines headed by an entry give the natural chain unless they say otherwise; changes in a name come on top.
UniProt Q01974: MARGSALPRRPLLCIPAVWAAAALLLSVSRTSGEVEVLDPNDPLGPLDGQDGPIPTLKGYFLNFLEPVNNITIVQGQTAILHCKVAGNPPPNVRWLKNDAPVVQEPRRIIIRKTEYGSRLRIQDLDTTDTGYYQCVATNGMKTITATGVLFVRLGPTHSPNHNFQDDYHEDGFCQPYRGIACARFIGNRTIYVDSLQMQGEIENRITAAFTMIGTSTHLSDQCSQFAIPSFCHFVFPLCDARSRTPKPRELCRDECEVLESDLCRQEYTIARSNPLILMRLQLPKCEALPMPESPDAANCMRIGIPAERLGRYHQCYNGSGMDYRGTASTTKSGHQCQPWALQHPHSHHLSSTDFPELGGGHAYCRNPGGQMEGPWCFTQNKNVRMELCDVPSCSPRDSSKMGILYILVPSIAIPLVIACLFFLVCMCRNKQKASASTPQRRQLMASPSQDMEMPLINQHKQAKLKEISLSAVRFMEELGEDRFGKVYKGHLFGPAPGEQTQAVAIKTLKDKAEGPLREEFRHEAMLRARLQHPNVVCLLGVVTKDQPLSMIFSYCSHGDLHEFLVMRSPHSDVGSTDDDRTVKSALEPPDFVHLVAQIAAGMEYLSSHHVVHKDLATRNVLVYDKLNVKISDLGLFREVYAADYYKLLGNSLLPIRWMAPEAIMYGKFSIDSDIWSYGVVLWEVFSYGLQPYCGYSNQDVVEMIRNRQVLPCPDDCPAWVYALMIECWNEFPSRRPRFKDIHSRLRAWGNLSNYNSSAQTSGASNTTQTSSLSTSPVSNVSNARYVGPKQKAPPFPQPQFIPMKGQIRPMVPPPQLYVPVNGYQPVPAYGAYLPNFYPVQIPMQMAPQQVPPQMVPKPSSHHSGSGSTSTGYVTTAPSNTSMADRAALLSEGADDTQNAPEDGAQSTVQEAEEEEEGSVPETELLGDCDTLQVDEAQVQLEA

The target in experiment [2] is T1, human ROR2 ECD-Fc fusion protein. As to the kind of experiment: summary of the phage clone screening (ELISA).
The target in experiment [3] is human ROR2 extracellular domain (ROR2 ECD recombinant protein) (human) (UniProt Q01974). As to the kind of experiment: kinetic binding analysis.
For experiment [4] the target is unchanged. As to the kind of experiment: ELISA, 20 ng coated ROR2 ECD, anti-human Fc-HRP.
Experiment [5] shares this target. As to the kind of experiment: ELISA, 20 ng coated ROR2 ECD, anti-human Fc-HRP (FIG. 13).

Results are given in words; binding and its absence hold for the method and conditions named. Some entries that bind do so weakly or less than the wild type.

B1: ROR2 clone #240 scFv phage antibody (scFv, V domains shown)
VH: QITLKESGPELVKPTQTLTLTCTFSGFSLSTSGMSVSWIRQPPGKALEWLARIDWDDDKYYSTSLKTRLTISKDTSKNQVVLTMTNTDPVDTATYYCARGFYLAYGSYDSWGQGTLVTVSS
VL: QSALTQPASVSGSPGQSITISCTGTSGDVGGYNYVSWYQHHPGKAPKLIIYDVNKRPSGFSDRFSGSKSGNTASLTISGLQAEDEADYYCSSYTSTSTVFGGGTKLTVLG
Turning to B1, the binding result in experiment [1] and in experiment [2] was “binds” in each case.

B2: ROR2-240 full length human IgG1 antibody (antibody, V domains shown)
VH: B1 VH
VL: B1 VL
notes: also called clone #240 IgG1
On to B2, for which the binding entry in experiment [3], in experiment [4] and in experiment [5] was “binds” each time.

The values are drawn from patent US20180127503A1 (EUREKA THERAPEUTICS, published 2018).
